Test results reported in PMC4685312.
These are yes or no findings as the source states them, for the method shown. In cells and extracts the contact can be indirect. These calls come from enrichment with a bait or labelling near it, and not all partners need be listed. For some of these results: A no says only that the protein was not detected with the bait.

By UniProt entry, the sequences of proteins in these tests, tags left out.
UniProt Q9BSM1: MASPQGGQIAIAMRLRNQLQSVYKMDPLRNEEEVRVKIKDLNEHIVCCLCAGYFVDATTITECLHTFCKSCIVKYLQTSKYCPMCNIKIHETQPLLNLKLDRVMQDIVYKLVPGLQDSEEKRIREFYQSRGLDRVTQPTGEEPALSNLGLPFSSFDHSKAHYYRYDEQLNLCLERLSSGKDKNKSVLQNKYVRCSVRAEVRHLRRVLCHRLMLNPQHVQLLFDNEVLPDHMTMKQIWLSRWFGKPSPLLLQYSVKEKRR
UniProt Q6W2J9: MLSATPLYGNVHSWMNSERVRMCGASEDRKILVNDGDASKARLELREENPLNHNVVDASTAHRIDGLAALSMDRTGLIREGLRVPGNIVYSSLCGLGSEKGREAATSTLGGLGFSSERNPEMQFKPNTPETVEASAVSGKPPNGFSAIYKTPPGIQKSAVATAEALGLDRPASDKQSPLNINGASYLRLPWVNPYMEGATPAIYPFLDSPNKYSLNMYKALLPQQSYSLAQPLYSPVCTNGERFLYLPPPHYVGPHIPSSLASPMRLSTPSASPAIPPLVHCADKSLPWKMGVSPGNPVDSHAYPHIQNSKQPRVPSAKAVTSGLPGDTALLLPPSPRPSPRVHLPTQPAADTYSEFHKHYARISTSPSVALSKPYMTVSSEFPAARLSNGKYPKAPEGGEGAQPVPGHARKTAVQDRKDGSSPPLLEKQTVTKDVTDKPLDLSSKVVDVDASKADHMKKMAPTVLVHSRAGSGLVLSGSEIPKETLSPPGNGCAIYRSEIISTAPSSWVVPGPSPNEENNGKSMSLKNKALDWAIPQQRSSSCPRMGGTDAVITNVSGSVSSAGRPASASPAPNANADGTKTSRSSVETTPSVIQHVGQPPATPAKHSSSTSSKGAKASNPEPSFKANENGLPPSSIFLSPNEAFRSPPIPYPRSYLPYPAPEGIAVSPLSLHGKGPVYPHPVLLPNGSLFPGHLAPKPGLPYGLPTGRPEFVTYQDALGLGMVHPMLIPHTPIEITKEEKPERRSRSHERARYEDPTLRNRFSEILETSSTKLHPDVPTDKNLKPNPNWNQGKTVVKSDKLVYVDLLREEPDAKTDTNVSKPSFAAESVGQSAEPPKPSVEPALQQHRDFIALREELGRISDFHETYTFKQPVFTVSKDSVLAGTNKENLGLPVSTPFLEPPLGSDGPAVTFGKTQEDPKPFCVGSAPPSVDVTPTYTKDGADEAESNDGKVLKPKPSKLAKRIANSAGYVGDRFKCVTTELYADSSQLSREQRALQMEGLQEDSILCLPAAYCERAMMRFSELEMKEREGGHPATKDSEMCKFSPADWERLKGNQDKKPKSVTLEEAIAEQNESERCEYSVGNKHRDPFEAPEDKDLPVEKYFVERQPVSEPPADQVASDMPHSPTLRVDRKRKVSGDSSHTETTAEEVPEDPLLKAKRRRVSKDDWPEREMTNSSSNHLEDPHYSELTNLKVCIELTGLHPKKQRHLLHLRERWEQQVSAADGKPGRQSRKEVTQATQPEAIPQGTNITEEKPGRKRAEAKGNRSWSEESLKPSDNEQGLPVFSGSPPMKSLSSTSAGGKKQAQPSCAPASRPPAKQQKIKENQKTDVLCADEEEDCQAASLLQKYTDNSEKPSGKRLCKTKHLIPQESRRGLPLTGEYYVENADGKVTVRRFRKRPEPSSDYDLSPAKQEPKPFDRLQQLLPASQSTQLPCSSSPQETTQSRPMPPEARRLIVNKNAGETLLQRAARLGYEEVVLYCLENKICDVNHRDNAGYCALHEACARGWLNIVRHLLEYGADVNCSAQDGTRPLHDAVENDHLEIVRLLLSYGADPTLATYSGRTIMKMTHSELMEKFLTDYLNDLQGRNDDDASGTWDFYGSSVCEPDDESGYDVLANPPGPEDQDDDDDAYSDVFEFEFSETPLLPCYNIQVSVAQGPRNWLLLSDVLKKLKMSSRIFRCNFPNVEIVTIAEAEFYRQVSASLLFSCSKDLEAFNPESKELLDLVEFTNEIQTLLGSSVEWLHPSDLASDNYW
UniProt Q01860: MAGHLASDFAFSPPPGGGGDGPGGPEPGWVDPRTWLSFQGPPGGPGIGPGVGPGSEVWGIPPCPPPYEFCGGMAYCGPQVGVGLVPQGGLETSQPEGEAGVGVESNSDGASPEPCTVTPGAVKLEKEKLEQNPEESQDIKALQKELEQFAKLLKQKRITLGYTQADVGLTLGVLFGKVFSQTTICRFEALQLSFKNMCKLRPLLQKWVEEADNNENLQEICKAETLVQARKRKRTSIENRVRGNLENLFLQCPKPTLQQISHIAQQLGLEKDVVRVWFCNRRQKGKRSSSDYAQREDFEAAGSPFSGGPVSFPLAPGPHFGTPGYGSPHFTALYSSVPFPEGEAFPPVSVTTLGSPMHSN
UniProt Q9H9S0: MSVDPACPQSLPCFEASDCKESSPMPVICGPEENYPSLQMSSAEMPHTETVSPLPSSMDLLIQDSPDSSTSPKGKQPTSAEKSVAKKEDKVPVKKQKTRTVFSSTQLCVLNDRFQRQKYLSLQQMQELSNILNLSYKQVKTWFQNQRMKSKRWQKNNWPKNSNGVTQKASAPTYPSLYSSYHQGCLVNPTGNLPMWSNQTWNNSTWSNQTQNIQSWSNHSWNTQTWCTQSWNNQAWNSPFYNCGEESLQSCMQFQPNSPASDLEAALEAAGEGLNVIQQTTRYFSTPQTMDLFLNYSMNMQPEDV

T1: DPPA4 (human (endogenous in NT2)) (UniProt Q7L190)
T1 sequence: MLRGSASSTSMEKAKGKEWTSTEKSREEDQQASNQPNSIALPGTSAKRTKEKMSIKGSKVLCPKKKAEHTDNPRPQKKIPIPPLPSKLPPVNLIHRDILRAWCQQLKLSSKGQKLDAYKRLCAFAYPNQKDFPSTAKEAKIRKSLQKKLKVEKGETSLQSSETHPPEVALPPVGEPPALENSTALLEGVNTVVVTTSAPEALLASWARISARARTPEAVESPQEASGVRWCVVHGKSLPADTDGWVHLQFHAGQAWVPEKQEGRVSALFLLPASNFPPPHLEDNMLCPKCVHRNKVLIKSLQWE


What was measured:
Experiment in all cases: affinity purification with mass spectrometry; endogenous immunoprecipitation (antibodies to PCGF1, BCOR, DPPA4, NANOG or OCT4) from nuclear lysate of undifferentiated NT2 cells, trypsin digest on beads, label-free mass spectrometry (Q Exactive), volcano plot against IgG beads
[1] = target: PCGF1 (human (endogenous in NT2)) (UniProt Q9BSM1)
[2] = target: T1, DPPA4 (human (endogenous in NT2))
[3] = target: BCOR (human (endogenous in NT2)) (UniProt Q6W2J9)
[4] = target: OCT4 (human (endogenous in NT2)) (UniProt Q01860)
[5] = target: NANOG (human (endogenous in NT2)) (UniProt Q9H9S0)
[6] = target: NANOG (human (endogenous in NT2)), Q9H9S0; settings: remark: other sources report otherwise
[7] = target: OCT4 (human (endogenous in NT2)), Q01860; settings: remark: other sources report otherwise

binding [1] | binding [2] | binding [3] | binding [4] | binding [5] | binding [6] | binding [7] | Binder
binds | no binding | binds | no binding | binds |  |  | KDM2B (protein, UniProt Q8NHM5 1-1336) MAGPQMGGSAEDHPPRKRHAAEKQKKKTVIYTKCFEFESATQRPIDRQRYDENEDLSDVEEIVSVRGFSLEEKLRSQLYQGDFVHAMEGKDFNYEYVQREALRVPLIFREKDGLGIKMPDPDFTVRDVKLLVGSRRLVDVMDVNTQKGTEMSMSQFVRYYETPEAQRDKLYNVISLEFSHTKLEHLVKRPTVVDLVDWVDNMWPQHLKEKQTEATNAIAEMKYPKVKKYCLMSVKGCFTDFHIDFGGTSVWYHVFRGGKIFWLIPPTLHNLALYEEWVLSGKQSDIFLGDRVERCQRIELKQGYTFFIPSGWIHAVYTPVDSLVFGGNILHSFNVPMQLRIYEIEDRTRVQPKFRYPFYYEMCWYVLERYVYCVTQRSHLTQEYQRESMLIDAPRKPSIDGFSSDSWLEMEEEACDQQPQEEEEKDEEGEGRDRAPKPPTDGSTSPTSTPSEDQEALGKKPKAPALRFLKRTLSNESEESVKSTTLAVDYPKTPTGSPATEVSAKWTHLTEFELKGLKALVEKLESLPENKKCVPEGIEDPQALLEGVKNVLKEHADDDPSLAITGVPVVTWPKKTPKNRAVGRPKGKLGPASAVKLAANRTTAGARRRRTRCRKCEACLRTECGECHFCKDMKKFGGPGRMKQSCIMRQCIAPVLPHTAVCLVCGEAGKEDTVEEEEGKFNLMLMECSICNEIIHPGCLKIKESEGVVNDELPNCWECPKCNHAGKTGKQKRGPGFKYASNLPGSLLKEQKMNRDNKEGQEPAKRRSECEEAPRRRSDEHSKKVPPDGLLRRKSDDVHLRKKRKYEKPQELSGRKRASSLQTSPGSSSHLSPRPPLGSSLSPWWRSSLTYFQQQLKPGKEDKLFRKKRRSWKNAEDRMALANKPLRRFKQEPEDELPEAPPKTRESDHSRSSSPTAGPSTEGAEGPEEKKKVKMRRKRRLPNKELSRELSKELNHEIQRTENSLANENQQPIKSEPESEGEEPKRPPGICERPHRFSKGLNGTPRELRHQLGPSLRSPPRVISRPPPSVSPPKCIQMERHVIRPPPISPPPDSLPLDDGAAHVMHREVWMAVFSYLSHQDLCVCMRVCRTWNRWCCDKRLWTRIDLNHCKSITPLMLSGIIRRQPVSLDLSWTNISKKQLSWLINRLPGLRDLVLSGCSWIAVSALCSSSCPLLRTLDVQWVEGLKDAQMRDLLSPPTDNRPGQMDNRSKLRNIVELRLAGLDITDASLRLIIRHMPLLSKLHLSYCNHVTDQSINLLTAVGTTTRDSLTEINLSDCNKVTDQCLSFFKRCGNICHIDLRYCKQVTKEGCEQFIAEMSVSVQFGQVEEKLLQKLS
 |  |  |  |  | binds | no binding | RNF2, Q99496 1-336 (protein) MSQAVQTNGTQPLSKTWELSLYELQRTPQEAITDGLEIVVSPRSLHSELMCPICLDMLKNTMTTKECLHRFCADCIITALRSGNKECPTCRKKLVSKRSLRPDPNFDALISKIYPSRDEYEAHQERVLARINKHNNQQALSHSIEEGLKIQAMNRLQRGKKQQIENGSGAEDNGDSSHCSNASTHSNQEAGPSNKRTKTSDDSGLELDNNNAAMAIDPVMDGASEIELVFRPHPTLMEKDDSAQTRYIKTSGNATVDHLSKYLAVRLALEELRSKGESNQMNLDTASEKQYTIYIATASGQFTVLNGSFSLELVSEKYWKVNKPMELYYAPTKEHK
